Test: in vivo
Assay type: in vivo
Conditions: oral, 50 mg/kg, male wister rats (7 weeks old), bioassay (Escherichia coli SC507)
Experimental: Male wister rats (7 weeks old) were administered orally with the test compound, and the change of the concentration of the compound in blood was measured.
Dosage of the test compound:
Quantitative method: Bioassay
(test bacterium: Escherichia coli SC507)

CC1=C(C(=O)O)N2C(=O)[C@@H](NC(=O)[C@H](N)c3ccccc3)[C@H]2SC1 [YY, Cefalexin, reference compound]
Concentration in blood (One Hour, 60 min): 17870 ng/mL
concentration at 4 h (rat, blood, Four Hours): 6710 ng/mL
concentration at 2 h (rat, blood, Two Hours): 18900 ng/mL

Source: patent publication US4841044A, “Cephalosporin derivatives” (Taisho Pharmaceutical Co., Ltd., priority 1985, dated 1989)
